{"source": "PubChem BioAssay AID1259331 (Drosophila RNAi Screening Center, 2017)", "test": "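Fly transmembrane-protein genes that affect zinc toxicity in cultured cells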 (primary screen)", "cell system": "Drosophila S2R+ cells", "knock-down reagent": "long dsRNA against Drosophila genes", "duration": "5 days (4 days knock-down, then 1 day zinc)", "treatment": "zinc chloride at 15 mM final level for 1 day", "measured": "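Total cellular ATP measured by luciferase luminescence as a viability proxy, turned into Z scores from three plate copies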", "direction": "mean Z score: higher = more ATP than other wells, better survival under zinc; ATP luminescence: higher = more ATP, more viable cells", "rule for the call": "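a reagent is called a hit when its Z score is above 1.5 or below -1.5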", "calls": "active = hit, ATP up or down; inactive = not a hit", "note": "Here is a random part of about 3,100 reagents tested. 126 of all reagents (4.1%) count as active. 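Calls are per reagent; zinc was so toxic that few knock-downs lowered ATP further, so most hits raise ATP.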 The raw values are shown without normalisation. A number with no mark means an inactive call. Reagents against one gene are numbered here. A plus sign joins genes that one reagent is predicted to hit. No sequences are given here. Not given: the amount of reagent."}
{"target":"CG7806","dsRNA no.":1,"mean Z score":-0.504,"ATP luminescence, replicate 1":51989,"ATP luminescence, replicate 2":46040}
{"target":"CG7806","dsRNA no.":2,"mean Z score":-0.0577,"ATP luminescence, replicate 1":53310,"ATP luminescence, replicate 2":57631}
{"target":"Syx5 (Syntaxin 5)","dsRNA no.":1,"mean Z score":-0.567,"ATP luminescence, replicate 1":49366,"ATP luminescence, replicate 2":47007}
{"target":"Baldspot","dsRNA no.":1,"mean Z score":-0.569,"ATP luminescence, replicate 1":63925,"ATP luminescence, replicate 2":50686}
{"target":"Or67b (Odorant receptor 67b)","dsRNA no.":1,"mean Z score":-0.72,"ATP luminescence, replicate 1":66223,"ATP luminescence, replicate 2":47735}
{"target":"Or67b (Odorant receptor 67b)","dsRNA no.":2,"mean Z score":0.0253,"ATP luminescence, replicate 1":63221,"ATP luminescence, replicate 2":59174}
{"target":"CapaR (Capability receptor)","dsRNA no.":1,"mean Z score":-0.0548,"ATP luminescence, replicate 1":54524,"ATP luminescence, replicate 2":55788}
{"target":"CapaR (Capability receptor)","dsRNA no.":2,"mean Z score":0.31,"ATP luminescence, replicate 1":62215,"ATP luminescence, replicate 2":69430}
{"target":"Vha16-1 (Vacuolar H[+] ATPase 16kD subunit 1)","dsRNA no.":1,"mean Z score":"1.7 (active)","ATP luminescence, replicate 1":1.08e5,"ATP luminescence, replicate 2":1.05e5}
{"target":"eca (eclair)","dsRNA no.":1,"mean Z score":-0.223,"ATP luminescence, replicate 1":47806,"ATP luminescence, replicate 2":45525}
{"target":"ppk15 (pickpocket 15)","dsRNA no.":1,"mean Z score":0.604,"ATP luminescence, replicate 1":75244,"ATP luminescence, replicate 2":76891}
{"target":"ppk15 (pickpocket 15)","dsRNA no.":2,"mean Z score":"2.49 (active)","ATP luminescence, replicate 1":94611,"ATP luminescence, replicate 2":91501}
{"target":"Ir8a (Ionotropic receptor 8a)","dsRNA no.":1,"mean Z score":-0.599,"ATP luminescence, replicate 1":52607,"ATP luminescence, replicate 2":59706}
{"target":"Ir8a (Ionotropic receptor 8a)","dsRNA no.":2,"mean Z score":0.252,"ATP luminescence, replicate 1":40056,"ATP luminescence, replicate 2":48492}
{"target":"CG15096","dsRNA no.":1,"mean Z score":-0.0419,"ATP luminescence, replicate 1":30387,"ATP luminescence, replicate 2":31387}
{"target":"CG15096","dsRNA no.":2,"mean Z score":0.203,"ATP luminescence, replicate 1":65605,"ATP luminescence, replicate 2":63427}
{"target":"CG12730","dsRNA no.":1,"mean Z score":-0.814,"ATP luminescence, replicate 1":53208,"ATP luminescence, replicate 2":51869}
{"target":"CG12730","dsRNA no.":2,"mean Z score":0.151,"ATP luminescence, replicate 1":58197,"ATP luminescence, replicate 2":49366}
{"target":"sina + Rh4","dsRNA no.":1,"mean Z score":-0.217,"ATP luminescence, replicate 1":26359,"ATP luminescence, replicate 2":29616}
{"target":"CG32053","dsRNA no.":1,"mean Z score":1.06,"ATP luminescence, replicate 1":45119,"ATP luminescence, replicate 2":40125}
{"target":"FucT6 (alpha1,6-fucosyltransferase)","dsRNA no.":1,"mean Z score":-0.418,"ATP luminescence, replicate 1":41616,"ATP luminescence, replicate 2":40416}
{"target":"FucT6 (alpha1,6-fucosyltransferase)","dsRNA no.":2,"mean Z score":0.104,"ATP luminescence, replicate 1":55459,"ATP luminescence, replicate 2":57374}
{"target":"CG34450","dsRNA no.":1,"mean Z score":-0.158,"ATP luminescence, replicate 1":44771,"ATP luminescence, replicate 2":44891}
{"target":"CG34450","dsRNA no.":2,"mean Z score":-0.0688,"ATP luminescence, replicate 1":59946,"ATP luminescence, replicate 2":58111}

Active calls, among the entries above:
{"target":"Vha16-1 (Vacuolar H[+] ATPase 16kD subunit 1)","dsRNA no.":1,"mean Z score":"1.7 (active)","ATP luminescence, replicate 1":1.08e5,"ATP luminescence, replicate 2":1.05e5}
{"target":"ppk15 (pickpocket 15)","dsRNA no.":2,"mean Z score":"2.49 (active)","ATP luminescence, replicate 1":94611,"ATP luminescence, replicate 2":91501}
